This passage reports binding results from article PMC11050213.

Assay [1] has as its target T1, Arabidopsis ELP6 (Arabidopsis thaliana) (UniProt Q8L9Y2).
T1 sequence: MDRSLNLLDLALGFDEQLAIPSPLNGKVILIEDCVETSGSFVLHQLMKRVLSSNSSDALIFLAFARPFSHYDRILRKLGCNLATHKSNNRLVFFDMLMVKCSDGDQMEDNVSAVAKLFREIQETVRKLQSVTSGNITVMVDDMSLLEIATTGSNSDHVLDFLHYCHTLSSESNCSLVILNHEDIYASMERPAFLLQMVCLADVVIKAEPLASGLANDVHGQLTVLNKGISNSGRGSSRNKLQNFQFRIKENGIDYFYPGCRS
Kind of assay: two-hybrid; GAL4-based ProQuest system, yeast MaV203; bait in pDEST32 (BD), prey in pDEST22 (AD); growth on SD/-Leu/-Trp/-His with 10 mM 3-AT.

The target in assay [2] is T2, Arabidopsis ELP4 (Arabidopsis thaliana) (UniProt Q9C778).
T2 sequence: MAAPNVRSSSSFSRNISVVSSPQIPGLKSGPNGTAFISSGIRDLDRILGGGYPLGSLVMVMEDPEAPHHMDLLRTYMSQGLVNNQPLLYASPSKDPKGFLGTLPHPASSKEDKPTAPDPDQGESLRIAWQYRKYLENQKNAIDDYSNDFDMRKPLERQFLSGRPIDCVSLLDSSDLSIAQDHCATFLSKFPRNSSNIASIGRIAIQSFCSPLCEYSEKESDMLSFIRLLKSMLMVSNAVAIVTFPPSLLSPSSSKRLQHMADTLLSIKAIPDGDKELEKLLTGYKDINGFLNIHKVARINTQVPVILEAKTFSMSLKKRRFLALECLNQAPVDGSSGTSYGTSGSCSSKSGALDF
The description is as above.

These are yes or no findings as the source states them, for the method shown.

On to Arabidopsis ELP1, for which the binding entry in assay [1] and in assay [2] was “no binding” each time.
